# Results from the supplement of paper PMC11732987, “Enantioselective OTUD7B fragment discovery through chemoproteomics screening and high-throughput optimisation” (Communications Chemistry, 2025).
# Protein sequences, listed by entry. Tags and fused reporters are not part of them. Lines headed by an entry give the natural chain unless they say otherwise; changes in a name come on top.
# UniProt Q9UKX7: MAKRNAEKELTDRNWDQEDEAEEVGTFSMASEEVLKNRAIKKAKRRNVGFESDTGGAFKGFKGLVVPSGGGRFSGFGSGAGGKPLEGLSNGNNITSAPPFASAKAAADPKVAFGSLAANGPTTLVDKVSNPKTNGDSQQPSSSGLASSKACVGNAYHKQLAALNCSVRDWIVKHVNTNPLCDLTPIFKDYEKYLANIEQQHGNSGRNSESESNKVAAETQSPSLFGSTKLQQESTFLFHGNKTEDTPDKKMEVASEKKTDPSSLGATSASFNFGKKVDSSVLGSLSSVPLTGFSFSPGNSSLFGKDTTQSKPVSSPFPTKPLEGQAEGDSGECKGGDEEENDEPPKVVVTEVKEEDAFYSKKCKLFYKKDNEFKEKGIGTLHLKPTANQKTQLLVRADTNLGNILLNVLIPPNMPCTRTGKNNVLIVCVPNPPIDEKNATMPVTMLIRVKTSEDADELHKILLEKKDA
# This is one part of the list. The data scatter; read single values as rough.
# Target: T1, NUP50 C333 (UniProt Q9UKX7)
# T1 sequence (whole entry): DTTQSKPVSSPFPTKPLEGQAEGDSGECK
# Assay: log2 mean competition ratio of IA-DTB cysteine labelling (DMSO/compound) (log2 ratio); higher = stronger cysteine engagement by compound
# Settings: 50 µM; treatment time: 4 h; cell line lysate: HEK293T
# Experimental: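 IA-DTB competitive cysteine chemoproteomics in HEK293T RIPA lysate. Lysates were treated with compound 29 or 30 at 50 or 200 µM for 4 h, then IA-DTB (500 µM, 1 h), trypsin-digested, NeutrAvidin-enriched and analysed by diaPASEF. Competition ratio = intensity DMSO / intensity compound (n=4 treated, n=64 DMSO); binding: mean log2 CR ≥ 1 and p ≤ 0.05 plus QC filters. Target is the cysteine site.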
row,Structure (SMILES),log2 mean competition ratio
1,O=C(CCl)N[C@H]1CCCc2ccccc21,0.672
2,O=C(CCl)N[C@@H]1CCCc2ccccc21,0.0522

# Same assay, conditions: 200 µM; treatment time: 4 h; cell line lysate: HEK293T
row,Structure (SMILES),log2 mean competition ratio
1,O=C(CCl)N[C@H]1CCCc2ccccc21,-0.0029
2,O=C(CCl)N[C@@H]1CCCc2ccccc21,-0.107
